Measured values published in publication doi:10.1101/259481.
Results are given in words; binding and its absence hold for the method and conditions named. Some entries that bind do so weakly or less than the wild type.

By UniProt entry, the sequences of proteins in these tests, tags left out. Where a name states a change or a piece, a line headed by the entry shows the natural chain unless it says otherwise. Chains listed by the source or under a name are the forms on record and can include a tag or linker. Residues count along the entry.
C-X-C motif ligand (CXCL)-12α (P48061, residues 22-89): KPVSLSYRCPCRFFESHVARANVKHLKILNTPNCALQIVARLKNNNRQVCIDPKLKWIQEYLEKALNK
CXCL-12γ (P48061, form named): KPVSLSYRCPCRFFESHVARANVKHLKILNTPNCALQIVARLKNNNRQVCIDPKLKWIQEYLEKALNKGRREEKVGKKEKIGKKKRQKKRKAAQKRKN
UniProt P18075, residues 293-431: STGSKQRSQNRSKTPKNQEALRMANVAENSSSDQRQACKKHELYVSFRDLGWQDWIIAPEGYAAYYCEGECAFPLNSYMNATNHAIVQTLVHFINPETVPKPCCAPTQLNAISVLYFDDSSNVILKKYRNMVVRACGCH
UniProt P05230, residues 16-155: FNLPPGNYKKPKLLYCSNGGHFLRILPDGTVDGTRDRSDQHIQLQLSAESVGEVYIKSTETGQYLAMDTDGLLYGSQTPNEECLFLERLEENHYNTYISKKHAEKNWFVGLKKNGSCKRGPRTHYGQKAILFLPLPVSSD
UniProt O76093, residues 28-207: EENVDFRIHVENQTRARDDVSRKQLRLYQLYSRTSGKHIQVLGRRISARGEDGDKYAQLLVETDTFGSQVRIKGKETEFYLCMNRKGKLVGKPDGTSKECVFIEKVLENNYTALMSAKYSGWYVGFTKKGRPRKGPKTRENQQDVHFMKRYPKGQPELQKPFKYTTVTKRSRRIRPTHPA
UniProt Q99075, residues 63-148: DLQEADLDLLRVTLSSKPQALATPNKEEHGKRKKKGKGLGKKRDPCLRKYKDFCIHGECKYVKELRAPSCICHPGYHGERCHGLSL
UniProt P05019, residues 49-118: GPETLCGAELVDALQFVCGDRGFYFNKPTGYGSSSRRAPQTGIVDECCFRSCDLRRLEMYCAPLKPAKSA
UniProt P01138, residues 122-241: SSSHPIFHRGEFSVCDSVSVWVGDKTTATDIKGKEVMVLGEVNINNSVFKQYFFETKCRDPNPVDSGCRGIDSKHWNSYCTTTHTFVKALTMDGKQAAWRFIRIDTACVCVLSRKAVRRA
UniProt Q16363: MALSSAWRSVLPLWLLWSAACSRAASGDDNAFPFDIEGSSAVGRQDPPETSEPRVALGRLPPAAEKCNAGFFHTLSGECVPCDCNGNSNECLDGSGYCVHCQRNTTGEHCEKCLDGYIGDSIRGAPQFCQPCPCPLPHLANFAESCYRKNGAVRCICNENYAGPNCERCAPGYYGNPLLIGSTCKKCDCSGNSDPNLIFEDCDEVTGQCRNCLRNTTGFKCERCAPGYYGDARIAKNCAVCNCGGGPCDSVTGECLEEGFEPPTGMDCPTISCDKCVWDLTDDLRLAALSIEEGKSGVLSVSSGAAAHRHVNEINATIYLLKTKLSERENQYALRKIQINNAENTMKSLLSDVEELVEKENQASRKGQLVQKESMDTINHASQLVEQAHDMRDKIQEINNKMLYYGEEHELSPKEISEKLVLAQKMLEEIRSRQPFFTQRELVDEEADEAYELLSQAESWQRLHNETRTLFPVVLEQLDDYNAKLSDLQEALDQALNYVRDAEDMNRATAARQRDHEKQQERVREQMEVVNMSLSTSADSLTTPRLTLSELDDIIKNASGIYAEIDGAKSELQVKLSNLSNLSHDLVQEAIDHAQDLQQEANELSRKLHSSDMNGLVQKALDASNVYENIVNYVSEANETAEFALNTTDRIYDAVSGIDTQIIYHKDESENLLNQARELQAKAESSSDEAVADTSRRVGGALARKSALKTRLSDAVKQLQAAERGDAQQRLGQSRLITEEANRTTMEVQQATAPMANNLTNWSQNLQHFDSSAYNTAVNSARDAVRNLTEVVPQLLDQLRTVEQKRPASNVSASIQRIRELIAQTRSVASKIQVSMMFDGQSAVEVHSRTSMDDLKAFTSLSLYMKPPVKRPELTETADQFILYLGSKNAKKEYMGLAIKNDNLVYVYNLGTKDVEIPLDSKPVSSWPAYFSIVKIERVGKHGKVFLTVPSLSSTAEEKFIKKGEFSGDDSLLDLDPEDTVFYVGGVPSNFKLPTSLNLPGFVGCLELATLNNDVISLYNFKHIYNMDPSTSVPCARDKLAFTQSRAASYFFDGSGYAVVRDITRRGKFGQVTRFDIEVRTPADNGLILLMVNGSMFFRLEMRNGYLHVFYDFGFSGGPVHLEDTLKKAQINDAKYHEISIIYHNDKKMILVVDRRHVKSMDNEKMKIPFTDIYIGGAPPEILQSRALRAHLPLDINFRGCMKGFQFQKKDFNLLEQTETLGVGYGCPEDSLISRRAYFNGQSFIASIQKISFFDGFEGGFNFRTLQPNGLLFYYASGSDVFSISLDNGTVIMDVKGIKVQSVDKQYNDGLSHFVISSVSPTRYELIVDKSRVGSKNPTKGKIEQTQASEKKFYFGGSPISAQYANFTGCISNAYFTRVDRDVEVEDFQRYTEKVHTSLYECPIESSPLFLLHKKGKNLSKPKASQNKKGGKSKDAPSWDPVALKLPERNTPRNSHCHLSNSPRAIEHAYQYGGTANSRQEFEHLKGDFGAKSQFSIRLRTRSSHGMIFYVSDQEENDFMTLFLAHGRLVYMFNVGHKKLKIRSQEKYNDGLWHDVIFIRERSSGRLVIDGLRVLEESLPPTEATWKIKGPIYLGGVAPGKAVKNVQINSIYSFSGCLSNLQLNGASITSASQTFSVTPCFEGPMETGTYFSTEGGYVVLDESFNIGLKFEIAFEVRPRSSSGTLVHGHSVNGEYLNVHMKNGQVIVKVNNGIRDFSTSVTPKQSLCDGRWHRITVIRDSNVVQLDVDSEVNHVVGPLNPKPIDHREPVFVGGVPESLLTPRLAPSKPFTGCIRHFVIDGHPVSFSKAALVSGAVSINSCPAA
UniProt O15230: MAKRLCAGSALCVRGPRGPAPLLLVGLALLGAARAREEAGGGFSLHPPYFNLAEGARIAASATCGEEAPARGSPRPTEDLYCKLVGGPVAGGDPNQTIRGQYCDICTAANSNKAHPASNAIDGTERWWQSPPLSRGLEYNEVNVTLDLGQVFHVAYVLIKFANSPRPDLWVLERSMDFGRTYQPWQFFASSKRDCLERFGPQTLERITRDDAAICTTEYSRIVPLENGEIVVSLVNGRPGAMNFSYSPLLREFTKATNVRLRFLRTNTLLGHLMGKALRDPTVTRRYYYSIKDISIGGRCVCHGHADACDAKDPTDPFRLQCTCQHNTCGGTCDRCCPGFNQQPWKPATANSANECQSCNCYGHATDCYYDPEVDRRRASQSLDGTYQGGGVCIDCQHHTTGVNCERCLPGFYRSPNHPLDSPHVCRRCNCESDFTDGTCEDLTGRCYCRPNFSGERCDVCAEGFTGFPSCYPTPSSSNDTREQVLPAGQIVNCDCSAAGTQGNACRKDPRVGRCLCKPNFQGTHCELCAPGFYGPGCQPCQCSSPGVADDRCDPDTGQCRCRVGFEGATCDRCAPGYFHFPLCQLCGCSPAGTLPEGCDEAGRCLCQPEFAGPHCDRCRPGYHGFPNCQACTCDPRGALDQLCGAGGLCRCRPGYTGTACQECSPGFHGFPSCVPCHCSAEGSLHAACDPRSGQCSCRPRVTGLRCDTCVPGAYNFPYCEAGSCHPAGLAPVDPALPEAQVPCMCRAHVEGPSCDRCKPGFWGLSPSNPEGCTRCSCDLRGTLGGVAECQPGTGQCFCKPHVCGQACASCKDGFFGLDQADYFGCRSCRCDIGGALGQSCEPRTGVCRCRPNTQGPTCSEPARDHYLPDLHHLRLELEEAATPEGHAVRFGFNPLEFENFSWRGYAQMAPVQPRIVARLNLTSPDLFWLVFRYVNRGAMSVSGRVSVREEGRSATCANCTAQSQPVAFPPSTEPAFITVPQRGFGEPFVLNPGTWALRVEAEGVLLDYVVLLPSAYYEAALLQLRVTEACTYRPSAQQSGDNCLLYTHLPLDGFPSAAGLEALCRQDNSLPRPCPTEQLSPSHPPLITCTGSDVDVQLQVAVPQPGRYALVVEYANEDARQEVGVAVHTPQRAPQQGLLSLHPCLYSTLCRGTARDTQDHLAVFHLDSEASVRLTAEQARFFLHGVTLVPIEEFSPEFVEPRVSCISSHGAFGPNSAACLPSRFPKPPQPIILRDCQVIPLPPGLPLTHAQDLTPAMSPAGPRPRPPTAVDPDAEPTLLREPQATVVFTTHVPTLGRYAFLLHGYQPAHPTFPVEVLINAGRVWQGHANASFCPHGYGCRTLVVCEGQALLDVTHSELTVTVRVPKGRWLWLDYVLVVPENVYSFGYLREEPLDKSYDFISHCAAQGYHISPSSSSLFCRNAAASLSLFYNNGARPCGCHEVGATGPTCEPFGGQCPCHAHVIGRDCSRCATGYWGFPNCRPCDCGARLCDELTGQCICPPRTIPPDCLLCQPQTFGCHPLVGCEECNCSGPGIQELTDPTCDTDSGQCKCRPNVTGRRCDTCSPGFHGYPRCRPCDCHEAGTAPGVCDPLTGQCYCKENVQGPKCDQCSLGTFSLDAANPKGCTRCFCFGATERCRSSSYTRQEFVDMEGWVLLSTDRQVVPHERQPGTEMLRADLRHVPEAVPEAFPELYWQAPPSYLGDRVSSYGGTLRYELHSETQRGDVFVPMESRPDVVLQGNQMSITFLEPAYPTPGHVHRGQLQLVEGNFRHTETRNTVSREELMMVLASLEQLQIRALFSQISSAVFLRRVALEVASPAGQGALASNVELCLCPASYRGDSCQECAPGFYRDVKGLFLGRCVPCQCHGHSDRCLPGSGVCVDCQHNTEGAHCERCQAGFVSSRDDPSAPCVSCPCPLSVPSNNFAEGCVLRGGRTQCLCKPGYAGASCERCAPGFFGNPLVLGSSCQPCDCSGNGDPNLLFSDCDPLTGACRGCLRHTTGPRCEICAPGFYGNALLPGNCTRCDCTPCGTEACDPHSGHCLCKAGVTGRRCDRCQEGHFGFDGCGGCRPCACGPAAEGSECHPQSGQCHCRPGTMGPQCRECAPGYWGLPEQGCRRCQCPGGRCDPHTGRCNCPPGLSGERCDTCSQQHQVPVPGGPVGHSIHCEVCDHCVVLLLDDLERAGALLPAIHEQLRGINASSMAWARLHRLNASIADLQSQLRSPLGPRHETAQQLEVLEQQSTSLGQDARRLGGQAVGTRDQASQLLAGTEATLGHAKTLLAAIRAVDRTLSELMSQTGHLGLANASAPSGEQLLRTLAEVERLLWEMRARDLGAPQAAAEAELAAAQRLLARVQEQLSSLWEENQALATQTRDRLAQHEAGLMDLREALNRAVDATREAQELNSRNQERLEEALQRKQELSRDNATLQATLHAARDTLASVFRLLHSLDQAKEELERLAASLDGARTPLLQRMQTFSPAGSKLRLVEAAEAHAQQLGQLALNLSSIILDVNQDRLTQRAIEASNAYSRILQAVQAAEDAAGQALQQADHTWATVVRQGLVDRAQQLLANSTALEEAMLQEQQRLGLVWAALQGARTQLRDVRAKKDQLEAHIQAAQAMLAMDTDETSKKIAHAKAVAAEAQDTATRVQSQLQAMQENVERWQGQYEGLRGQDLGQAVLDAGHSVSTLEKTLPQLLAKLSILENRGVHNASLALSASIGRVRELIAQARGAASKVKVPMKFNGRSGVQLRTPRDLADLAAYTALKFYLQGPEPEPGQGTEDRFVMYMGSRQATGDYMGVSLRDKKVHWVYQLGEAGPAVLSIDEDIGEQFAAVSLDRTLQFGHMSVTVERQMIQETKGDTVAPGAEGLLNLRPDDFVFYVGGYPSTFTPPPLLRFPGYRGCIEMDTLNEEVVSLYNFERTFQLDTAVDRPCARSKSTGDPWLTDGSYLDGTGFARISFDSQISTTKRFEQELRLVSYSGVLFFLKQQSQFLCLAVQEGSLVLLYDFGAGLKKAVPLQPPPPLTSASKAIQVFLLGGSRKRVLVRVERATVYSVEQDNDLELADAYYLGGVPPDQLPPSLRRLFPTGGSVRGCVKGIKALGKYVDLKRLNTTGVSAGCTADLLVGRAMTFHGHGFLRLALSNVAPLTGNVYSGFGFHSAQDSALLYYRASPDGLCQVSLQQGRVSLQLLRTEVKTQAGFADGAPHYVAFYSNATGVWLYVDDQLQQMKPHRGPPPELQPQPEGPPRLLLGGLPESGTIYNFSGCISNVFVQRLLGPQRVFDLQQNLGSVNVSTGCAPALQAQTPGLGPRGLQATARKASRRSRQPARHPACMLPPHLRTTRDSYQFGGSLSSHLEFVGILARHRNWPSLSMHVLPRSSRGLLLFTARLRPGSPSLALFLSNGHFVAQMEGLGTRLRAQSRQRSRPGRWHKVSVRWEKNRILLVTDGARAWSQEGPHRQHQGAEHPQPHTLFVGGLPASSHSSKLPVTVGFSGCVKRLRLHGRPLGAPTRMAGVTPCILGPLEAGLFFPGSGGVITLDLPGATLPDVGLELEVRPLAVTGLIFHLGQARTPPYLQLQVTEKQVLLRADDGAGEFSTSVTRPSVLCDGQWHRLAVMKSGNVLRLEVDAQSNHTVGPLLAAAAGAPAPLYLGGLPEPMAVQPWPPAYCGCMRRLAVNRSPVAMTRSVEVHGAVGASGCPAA

How the values were obtained:
Assay in all cases: ELISA
[1] = target: T1, C-X-C motif ligand (CXCL)-11 (UniProt O14625)
T1 sequence: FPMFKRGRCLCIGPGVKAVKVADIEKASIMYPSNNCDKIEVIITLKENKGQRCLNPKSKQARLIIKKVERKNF

[2] = target: C-X-C motif ligand (CXCL)-12α (UniProt P48061)
CXCL-12γ = CXCL-12γ (UniProt P48061)
[3] = target: T2, bone morphogenetic protein (BMP)-2 (UniProt P12643)
T2 sequence: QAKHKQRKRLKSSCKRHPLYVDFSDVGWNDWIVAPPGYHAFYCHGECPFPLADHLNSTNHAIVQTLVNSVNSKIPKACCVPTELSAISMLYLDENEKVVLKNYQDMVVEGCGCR

[4] = target: T3, bone morphogenetic protein (BMP)-3 (UniProt P12645)
T3 sequence: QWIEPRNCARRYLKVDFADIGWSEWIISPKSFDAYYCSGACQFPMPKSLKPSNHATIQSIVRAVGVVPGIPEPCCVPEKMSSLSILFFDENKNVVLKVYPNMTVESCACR

[5] = target: T4, bone morphogenetic protein (BMP)-4 (UniProt P12644)
T4 sequence: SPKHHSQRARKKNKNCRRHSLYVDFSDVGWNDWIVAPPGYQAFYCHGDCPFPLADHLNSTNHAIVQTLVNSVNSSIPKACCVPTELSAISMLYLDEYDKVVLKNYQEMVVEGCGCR

[6] = target: bone morphogenetic protein (BMP)-7 (UniProt P18075)
[7] = target: fibroblast growth factor (FGF)-1 (UniProt P05230)
[8] = target: T5, fibroblast growth factor (FGF)-10 (UniProt O15520)
T5 sequence: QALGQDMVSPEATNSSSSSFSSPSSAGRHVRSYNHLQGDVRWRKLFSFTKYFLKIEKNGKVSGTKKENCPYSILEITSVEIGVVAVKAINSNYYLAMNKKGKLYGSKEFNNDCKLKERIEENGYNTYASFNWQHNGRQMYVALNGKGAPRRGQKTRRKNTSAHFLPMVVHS

[9] = target: fibroblast growth factor (FGF)-18 (UniProt O76093)
[10] = target: T6, fibroblast growth factor (FGF)-6 (UniProt P10767)
T6 sequence: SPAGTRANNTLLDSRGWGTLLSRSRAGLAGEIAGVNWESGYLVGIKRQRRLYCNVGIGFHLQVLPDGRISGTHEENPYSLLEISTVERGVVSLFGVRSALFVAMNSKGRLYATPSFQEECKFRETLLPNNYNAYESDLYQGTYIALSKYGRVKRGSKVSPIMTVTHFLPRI

[11] = target: T7, fibroblast growth factor (FGF)-7 (UniProt P21781)
T7 sequence: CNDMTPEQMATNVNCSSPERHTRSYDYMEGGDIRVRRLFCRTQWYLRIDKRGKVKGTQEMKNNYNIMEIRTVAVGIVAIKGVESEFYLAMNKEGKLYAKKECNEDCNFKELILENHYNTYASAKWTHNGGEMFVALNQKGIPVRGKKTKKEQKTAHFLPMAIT

[12] = target: heparin-binding epidermal growth factor (HB-EGF) (UniProt Q99075)
[13] = target: insulin-like growth factor (IGF)-1 (UniProt P05019)
neurotrophin (NT)-3 = target: T8, neurotrophin (NT)-3 (UniProt P20783)
T8 sequence: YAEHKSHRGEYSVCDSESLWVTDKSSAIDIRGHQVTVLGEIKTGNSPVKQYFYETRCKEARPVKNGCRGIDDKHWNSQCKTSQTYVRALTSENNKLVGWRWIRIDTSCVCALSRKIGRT

[14] = target: T9, placental growth factor (PlGF)-1 (human) (UniProt P49763)
T9 sequence: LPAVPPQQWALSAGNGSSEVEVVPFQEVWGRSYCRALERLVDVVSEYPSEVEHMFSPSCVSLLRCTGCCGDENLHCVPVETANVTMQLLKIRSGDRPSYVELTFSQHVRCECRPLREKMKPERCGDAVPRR

[15] = target: β-nerve growth factor (NGF) (UniProt P01138)

binding [1]	binding [2]	binding (CXCL-12γ)	binding [3]	binding [4]	binding [5]	binding [6]	binding [7]	binding [8]	binding [9]	binding [10]	binding [11]	binding [12]	binding [13]	binding (neurotrophin (NT)-3)	binding [14]	binding [15]	Substance
no binding (tested: 10 nM)	no binding (tested: 10 nM)	binds	binds	binds	no binding (tested: 10 nM)	no binding (tested: 10 nM)	no binding (tested: 10 nM)	binds	binds	no binding (tested: 10 nM)	binds	binds weakly	no binding (tested: 10 nM)	binds	no binding (tested: 10 nM)	binds weakly	laminin-421 (from UniProt Q16363 25-1823; P55268 33-1798; P11047 34-1609) (complex)
no binding (tested: 10 nM)	no binding (tested: 10 nM)	binds	binds	binds	no binding (tested: 10 nM)	no binding (tested: 10 nM)	no binding (tested: 10 nM)	binds	binds	no binding (tested: 10 nM)	binds	binds weakly	no binding (tested: 10 nM)	binds	no binding (tested: 10 nM)	binds weakly	laminin-521 (from UniProt O15230 36-3695; P55268 33-1798; P11047 34-1609) (complex)

The remaining lines, values behind:

Substance	binding [1]	binding [2]	binding (CXCL-12γ)	binding [3]	binding [4]	binding [5]	binding [6]	binding [7]	binding [8]	binding [9]	binding [10]	binding [11]	binding [12]	binding [13]	binding (neurotrophin (NT)-3)	binding [14]	binding [15]
laminin-111 (from UniProt P25391 18-3075; P07942 22-1786; P11047 34-1609) (complex)	no binding (tested: 10 nM)	no binding (tested: 10 nM)	binds	binds	binds	no binding (tested: 10 nM)	no binding (tested: 10 nM)	no binding (tested: 10 nM)	binds	binds	no binding (tested: 10 nM)	binds	binds weakly	no binding (tested: 10 nM)	binds	no binding (tested: 10 nM)	binds weakly
laminin-211 (from UniProt P24043 23-3122; P07942 22-1786; P11047 34-1609) (complex)	no binding (tested: 10 nM)	no binding (tested: 10 nM)	binds	binds	binds	no binding (tested: 10 nM)	no binding (tested: 10 nM)	no binding (tested: 10 nM)	binds	binds	no binding (tested: 10 nM)	binds	binds weakly	no binding (tested: 10 nM)	binds	no binding (tested: 10 nM)	binds weakly
laminin-411 (from UniProt Q16363 25-1823; P07942 22-1786; P11047 34-1609) (complex)	no binding (tested: 10 nM)	no binding (tested: 10 nM)	binds	binds	binds	no binding (tested: 10 nM)	no binding (tested: 10 nM)	no binding (tested: 10 nM)	binds	binds	no binding (tested: 10 nM)	binds	binds weakly	no binding (tested: 10 nM)	binds	no binding (tested: 10 nM)	binds weakly
laminin-511 (from UniProt O15230 36-3695; P07942 22-1786; P11047 34-1609) (complex)	no binding (tested: 10 nM)	no binding (tested: 10 nM)	binds	binds	binds	no binding (tested: 10 nM)	no binding (tested: 10 nM)	no binding (tested: 10 nM)	binds	binds	no binding (tested: 10 nM)	binds	binds weakly	no binding (tested: 10 nM)	binds	no binding (tested: 10 nM)	binds weakly
